Experimental data reported in PubChem BioAssay AID242 (DTP/NCI, 2004).
The list is a part of this screen's results and no random one: it gathers some chemical classes. Not every dose and run of a compound is shown. T/C is the treated group as % of the vehicle group. Where survival is the endpoint, this PubChem deposit counts one and a half times the control or more as active, and values a quarter to a half above the control carry no call in these data; other NCI protocols may use other cut-offs. Some entries show no survivor count and are marked so; the dose need not have been tolerated. Schedule codes are those of the source, read here as Q, the interval in days (D) or hours (H), X, the number of doses. Some entries were tested several times; the values are given in rising order.

Tested on: BDF1 mice, Lymphoma 8 ip, survival T/C
Experiment: NCI In Vivo Anticancer Drug Screen. Data for tumor model Lymphoma 8 (intraperitoneal) in B6D2F1 (BDF1) mice
Conditions: T/C endpoint: survival time, mean or median, schedule: Q01DX010 (ip), vehicle: saline, higher T/C = longer survival
Procedure: The antitumor activity of compounds was measured in mice bearing transplantable tumors. Survival or tumor size were measured and the results are expressed as the measurement made in the treated group (T) divided by the measurement made in the vehicle treated control group (C). The tumor model used in this assay is Lymphoma 8 (intraperitoneal) in B6D2F1 (BDF1) mice

| SMILES | T/C (dose: 0.63 mg/kg/injection) | T/C (dose: 1.25 mg/kg/injection) | T/C (dose: 2.5 mg/kg/injection) | T/C (dose: 5.0 mg/kg/injection) | other results |
| --- | --- | --- | --- | --- | --- |
| O=C(O)CN(CCCl)CCCl | 104 [survivor count not shown] and 114 % of control [survivor count not shown] | 125 [survivor count not shown] and 146 % of control [survivor count not shown] | 142 [survivor count not shown] and 154 % of control [survivor count not shown] | 95 [survivor count not shown] and 114 % of control [survivor count not shown] | – |
| ClCCN(CCCl)Cc1nc2ccccc2[nH]1 | – | 96 % of control [survivor count not shown] | 96 [survivor count not shown] and 108 % of control [survivor count not shown] | 107 [survivor count not shown] and 133 % of control [survivor count not shown] | T/C (dose: 10.0 mg/kg/injection): 150 [survivor count not shown] and 157 % of control [survivor count not shown] |
| CC(C(=O)O)N(CCCl)CCCl (stereo not given) | – | – | – | – | T/C (dose: 0.5 mg/kg/injection): 133 [survivor count not shown] and 142 % of control [survivor count not shown]; T/C (dose: 1.0 mg/kg/injection): 120 [survivor count not shown] and 132 % of control [survivor count not shown]; T/C (dose: 2.0 mg/kg/injection): 153 [survivor count not shown] and 166 % of control [survivor count not shown]; T/C (dose: 4.0 mg/kg/injection): 200 % of control [survivor count not shown] |
| NC(Cc1cccc(N(CCCl)CCCl)c1)C(=O)O (stereo not given) | 108 % of control [survivor count not shown] | 125 % of control [survivor count not shown] | 145 % of control [survivor count not shown] | 91 % of control [survivor count not shown] | – |
| NC1CCCCC1.NP(=O)(O)N(CCCl)CCCl | – | – | – | – | T/C (dose: 15.6 mg/kg/injection): 103 % of control [survivor count not shown]; T/C (dose: 31.3 mg/kg/injection): 185 % of control [survivor count not shown] |
| ClCCNCCCl | – | – | – | – | T/C (dose: 18.8 mg/kg/injection): 118 % of control [survivor count not shown]; T/C (dose: 37.5 mg/kg/injection): 136 [survivor count not shown] and 154 % of control [survivor count not shown] |
